Screen size: about 2,100 compounds; about 260 (12%) were called active. The shares of active, inactive and inconclusive entries below differ from those in the screen. Calls follow the shape of the dose curve; as a rule, active = well fitted cell-killing curve with a large enough effect; inconclusive = small, poorly fitted or top-dose-only effect, or effect the other way; inactive = flat fitted curve, though single readings scatter. Potencies of inconclusive entries are doubtful fits and often do not repeat.
assay: Viability Counterscreen for Confirmatory qHTS for Inhibitors of ATXN expression; conditions: HEK-293 ATXN2-luc cells viability, CellTiter-Fluor, 24 h; also: nearly all actives have a fitted effect of over 50% in size
How it was run: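 Luminescence read-out (SteadyGlo, 5 min) followed a 30 min Gly-Phe-AFC (25 uM final) viability fluorescence read. ATXN2-luciferase reporter cells were exposed 24 h to a dilution series. Medium-only wells served as the 100% inhibition reference.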
Potency is read from the fitted curve at half-maximal effect.

SMILES	Potency
COc1ccc(/C=C/C(=O)Nc2cccc(S(=O)(=O)N3CCCC3)c2)cc1OC	inactive
CCCCC(=O)NC(c1ccc(N(C)C)cc1)c1ccc2cccnc2c1O (stereo unspecified)	inconclusive: 3.98 µM [cytotoxic, full curve]
O=C(CSc1ccc2ccccc2c1)Nc1nc2ccccc2[nH]1	inactive
CC(C)CC(=NNC(=O)c1ccncc1)c1cc(Cl)ccc1O	inconclusive: 3.55 µM [rising, partial curve]
O=C(NCC1CCCO1)c1cccc(Oc2ccc([N+](=O)[O-])cc2Cl)c1 (stereo unspecified)	inactive
Oc1c(C(Nc2cccc(C(F)(F)F)c2)c2cccnc2)ccc2cccnc12 (stereo unspecified)	inconclusive: 28.2 µM [cytotoxic, single point]
CCOc1ccc(NS(=O)(=O)c2ccc(C(=O)NNC(=O)c3ccccc3O)cc2)cc1	inconclusive: 39.8 µM [cytotoxic, single point]
CCCNC(=O)c1ccc2c(=O)c(O)c(-c3cccc(Br)c3)[nH]c2c1	inactive
CCCc1nc(C)cc(N2CCN(c3ccccc3)CC2)n1	inconclusive: 31.6 µM [cytotoxic, partial curve, poor fit]
Cc1ccc2c(c1)C1CN(C)CCC1N2C(=S)NC(=O)c1ccc(Br)cc1 (stereo unspecified)	inconclusive: 3.16 µM [cytotoxic, single point]
O=C(Nc1ccc(F)cc1)c1sccc1SCc1cccc(C(F)(F)F)c1	inactive
CC(C)(C)N(Cc1ccc2c(c1)OCO2)C(=O)/C=C\S(=O)c1ccccc1 (stereo unspecified)	active: 17.8 µM
Cc1nc2c(OCc3ccc(C(F)(F)F)cc3)cccn2c1N(C)C(=O)CCC1CCCC1	inconclusive: 39.8 µM [cytotoxic, single point]
C/C(=N\NC(=O)CN(c1ccccc1)S(C)(=O)=O)c1ccccc1O	inconclusive: 31.6 µM [cytotoxic, partial curve]
CCOc1ccccc1NC(=O)N1CCC(c2nc3ccccc3[nH]2)CC1	inactive
CN(C)CCCNc1nc2cc(-c3cccc(Cl)c3)sc2c(=O)n1C	inconclusive: 44.7 µM [cytotoxic, single point]
COc1ccccc1OCCN1CSC(=S)N(C)C1	active: 20 µM
Cc1ccc(SC2=C(N(C)C)C(=O)c3ccccc3C2=O)cc1	inactive
O=C1/C(=C\c2cc(Cl)c(O)c(Cl)c2)SC(=S)N1Cc1ccccc1	active: 15.8 µM
CCOC(=O)c1ccc(N=c2sc(C(=O)OC)cc(=O)n2-c2ccc(C(=O)OCC)cc2)cc1	inactive
CCOC(=O)N1CCC(c2cc(=O)n3[nH]c(C)c(-c4ccc(F)cc4)c3n2)CC1	inconclusive: 39.8 µM [cytotoxic, single point]
